Experimental data from publication PMC6720575.
Results are given in words; binding and its absence hold for the method and conditions named.

Experiments:
[1] = target: Ilumatobacter coccineus YM16-304 sucrose 6^F-phosphate phosphorylase (Ilumatobacter coccineus YM16-304); assay: SEC + other: dynamic light scattering; Superdex 200 10/300 GL; 100 mM Tris pH 7.5 for IcSPP, 20 mM Bis-Tris pH 7.5 with 150 mM NaCl for TtSPP; apparent molecular weight about 60 kDa, confirmed by dynamic light scattering; both purified
[2] = target: Ilumatobacter coccineus YM16-304 sucrose 6^F-phosphate phosphorylase (Ilumatobacter coccineus YM16-304); assay: crystal structure; IcSPP at 2.05 Å (space group C222_(1), one chain in the asymmetric unit); TtSPP at 1.83 Å (space group P2_(1)2_(1)2_(1), two chains in the asymmetric unit); both purified
[3] = target: Thermoanaerobacterium thermosaccharolyticum sucrose 6^F-phosphate phosphorylase (Thermoanaerobacterium thermosaccharolyticum) (UniProt D9TT09); assay: SEC + other: dynamic light scattering; Superdex 200 10/300 GL; 100 mM Tris pH 7.5 for IcSPP, 20 mM Bis-Tris pH 7.5 with 150 mM NaCl for TtSPP; apparent molecular weight about 60 kDa, confirmed by dynamic light scattering; both purified
[4] = target: Thermoanaerobacterium thermosaccharolyticum sucrose 6^F-phosphate phosphorylase (Thermoanaerobacterium thermosaccharolyticum) (UniProt D9TT09); assay: crystal structure; IcSPP at 2.05 Å (space group C222_(1), one chain in the asymmetric unit); TtSPP at 1.83 Å (space group P2_(1)2_(1)2_(1), two chains in the asymmetric unit); both purified

binding [1] | binding [2] | binding [3] | binding [4] | Binder
no binding | no binding |  |  | Ilumatobacter coccineus YM16-304 sucrose 6^F-phosphate phosphorylase (enzyme, UniProt A0A6C7EEG6 1-523) MTHAGMKASLPNRVMLNAYPDSIDGDLAGTVRMLQRPEFTDAFGLFYVLPSIFNSDLDRGFSIIDYDLNSDLASAEDLAALDELGIMLKFDMVLNHLSVGSPQFQDLLKHGDDSAFRDFFIDWNEFWEGEGELHADGHVVPSPEHLDRLFMRKPGLPILQVRFPDGSDRFYWNTFYQRVETIDGERSYLGQMDLNAESPRVWTFYRETFEKLARYGAKIVRLDAFAYLHKAVGDTNFFNTPGTWDHLDRLRTISEENGLVLLPEIHGEYGTKIHEELSDRDYPVYDFFFPGLVIDAIDSASNTHLLRWIDEIIERDIATVNMLGCHDGIPVIDLKGGPTGQGLLPDATIEAMISRLLERGGRVKNLYGADGTKVSYYQVNATFFSALGESDARLRLARAIQLFVPGTPQVWYLDLFAGANDVEAADRAGADGHKEINRTNLSAADVEAGLARPIVLDQLEMIRLRNASPAFDGRFEVVPTDDTRLQLRWQNGSTVALLDADLATERFTITHEHDGHTEILGYD
 |  | no binding | no binding | Thermoanaerobacterium thermosaccharolyticum sucrose 6^F-phosphate phosphorylase (enzyme, UniProt D9TT09 1-488) MALKNKVQLITYPDSLGGNLKTLNDVLEKYFSDVFGGVHILPPFPSSGDRGFAPITYSEIEPKFGTWYDIKKMAENFDILLDLMVNHVSRRSIYFQDFLKKGRKSEYADMFITLDKLWKDGKPVKGDIEKMFLRRTLPYSTFKIEETGEEEKVWTTFGKTDPSEQIDLDVNSHLVREFLLEVFKTFSNFGVKIVRLDAVGYVIKKIGTSCFFVEPEIYEFLDWAKGQAASYGIELLLEVHSQFEVQYKLAERGFLIYDFILPFTVLYTLINKSNEMLYHYLKNRPINQFTMLDCHDGIPVKPDLDGLIDTKKAKEVVDICVQRGANLSLIYGDKYKSEDGFDVHQINCTYYSALNCDDDAYLAARAIQFFTPGIPQVYYVGLLAGVNDFEAVKKTKEGREINRHNYGLKEIEESVQKNVVQRLLKLIRFRNEYEAFNGEFFIEDCRKDEIRLTWKKDDKRCSLFIDLKTYKTTIDYINENGEEVKYLV
